Results: patent US9163040B2, “Substituted bisphenyl butanoic phosphonic acid derivatives as NEP inhibitors” (NOVARTIS AG, priority 2013, dated 2015)
At least one structure is not confirmed: it was looked up by name or label, or the drawing left a doubt. Some entries repeat one wording, which the source may state once for all of them.

Key:
[1] = system: plasma ANP; test: ANP potentiation model; format: in vivo, rat; settings: conscious rats infused with ANP 450 ng/kg/min i.v.; compound p.o.; rise within 0.5-1 hr, elevated for the duration of the experiment
[2] = system: Aβ(1-40) peptide concentrations in cerebrospinal fluid; test: Aβ model: CSF Aβ after oral dosing, related to plasma ANP increase by exposure-response regression; format: in vivo, rat; settings: plasma ANP 200 to 240% of baseline; rats, p.o.
Protocol: The relative CNS and peripheral therapeutic activities of NEP inhibitors were evaluated in two nonclinical animal models. Compounds or their vehicle were administered orally to conscious rats, and either the increase in Aβ(1-40) peptide concentrations in cerebrospinal fluid (CSF; “Aβ model”) or the increase in plasma levels of the NEP substrate, atrial natriuretic peptide (ANP; “ANP potentiation model”) were determined. Thus, NEP inhibitors that elicit no or small increases in CSF Aβ at a given increase in plasma ANP may have an advantage over ones that trigger large elevations in Aβ.
CNS effects of NEP inhibitors were assessed in a different rat model (“Aβ model”). In this study, we have measured cerebrospinal fluid (CSF) levels of Aβ as a sensitive indicator of CNS Aβ concentrations (Kwasi G. Mawuenyega, 2010, Science, Vol 330, 1774)). […]
Aβ40 in CSF was quantified using the MesoScale Discovery (MSD, Gaithersburg, Md.) 96-well MULTI-ARRAY Human/Rodent (4G8) Aβ40 Ultra-Sensitive Kit (K110FTE-2). […]
MSD MULTI-SPOT Aβ40 peptide plates from the kit were incubated for 1 hour after pipetting 150 μL/well 1% BSA/1× Tris solution. […] “Read buffer T” (from kit), 1×150 μL/well, was pipetted into the plates. The MSD plates were read immediately on the MSD SECTOR Imager 6000 reader. […]

CC(OC(=O)C[C@@H](Cc1ccc(-c2cc(Cl)ccc2F)cc1)NC(=O)CCP(=O)(O)O)OC(=O)OC1CCCCC1 (some centres unmarked) [Example 1]
effect on plasma ANP concentrations (in words) [1]: dose-dependently increased plasma ANP concentrations
increases in Aβ at all plasma ANP increases (in words) [2]: minimal increases in Aβ
